In publication PMC8854694:
These are yes or no findings as the source states them, for the method shown. In cells and extracts the contact can be indirect. Some entries that bind do so weakly or less than the wild type.

Sequences of proteins named here, by UniProt entry; tags and fusion partners are left off.
UniProt P55196: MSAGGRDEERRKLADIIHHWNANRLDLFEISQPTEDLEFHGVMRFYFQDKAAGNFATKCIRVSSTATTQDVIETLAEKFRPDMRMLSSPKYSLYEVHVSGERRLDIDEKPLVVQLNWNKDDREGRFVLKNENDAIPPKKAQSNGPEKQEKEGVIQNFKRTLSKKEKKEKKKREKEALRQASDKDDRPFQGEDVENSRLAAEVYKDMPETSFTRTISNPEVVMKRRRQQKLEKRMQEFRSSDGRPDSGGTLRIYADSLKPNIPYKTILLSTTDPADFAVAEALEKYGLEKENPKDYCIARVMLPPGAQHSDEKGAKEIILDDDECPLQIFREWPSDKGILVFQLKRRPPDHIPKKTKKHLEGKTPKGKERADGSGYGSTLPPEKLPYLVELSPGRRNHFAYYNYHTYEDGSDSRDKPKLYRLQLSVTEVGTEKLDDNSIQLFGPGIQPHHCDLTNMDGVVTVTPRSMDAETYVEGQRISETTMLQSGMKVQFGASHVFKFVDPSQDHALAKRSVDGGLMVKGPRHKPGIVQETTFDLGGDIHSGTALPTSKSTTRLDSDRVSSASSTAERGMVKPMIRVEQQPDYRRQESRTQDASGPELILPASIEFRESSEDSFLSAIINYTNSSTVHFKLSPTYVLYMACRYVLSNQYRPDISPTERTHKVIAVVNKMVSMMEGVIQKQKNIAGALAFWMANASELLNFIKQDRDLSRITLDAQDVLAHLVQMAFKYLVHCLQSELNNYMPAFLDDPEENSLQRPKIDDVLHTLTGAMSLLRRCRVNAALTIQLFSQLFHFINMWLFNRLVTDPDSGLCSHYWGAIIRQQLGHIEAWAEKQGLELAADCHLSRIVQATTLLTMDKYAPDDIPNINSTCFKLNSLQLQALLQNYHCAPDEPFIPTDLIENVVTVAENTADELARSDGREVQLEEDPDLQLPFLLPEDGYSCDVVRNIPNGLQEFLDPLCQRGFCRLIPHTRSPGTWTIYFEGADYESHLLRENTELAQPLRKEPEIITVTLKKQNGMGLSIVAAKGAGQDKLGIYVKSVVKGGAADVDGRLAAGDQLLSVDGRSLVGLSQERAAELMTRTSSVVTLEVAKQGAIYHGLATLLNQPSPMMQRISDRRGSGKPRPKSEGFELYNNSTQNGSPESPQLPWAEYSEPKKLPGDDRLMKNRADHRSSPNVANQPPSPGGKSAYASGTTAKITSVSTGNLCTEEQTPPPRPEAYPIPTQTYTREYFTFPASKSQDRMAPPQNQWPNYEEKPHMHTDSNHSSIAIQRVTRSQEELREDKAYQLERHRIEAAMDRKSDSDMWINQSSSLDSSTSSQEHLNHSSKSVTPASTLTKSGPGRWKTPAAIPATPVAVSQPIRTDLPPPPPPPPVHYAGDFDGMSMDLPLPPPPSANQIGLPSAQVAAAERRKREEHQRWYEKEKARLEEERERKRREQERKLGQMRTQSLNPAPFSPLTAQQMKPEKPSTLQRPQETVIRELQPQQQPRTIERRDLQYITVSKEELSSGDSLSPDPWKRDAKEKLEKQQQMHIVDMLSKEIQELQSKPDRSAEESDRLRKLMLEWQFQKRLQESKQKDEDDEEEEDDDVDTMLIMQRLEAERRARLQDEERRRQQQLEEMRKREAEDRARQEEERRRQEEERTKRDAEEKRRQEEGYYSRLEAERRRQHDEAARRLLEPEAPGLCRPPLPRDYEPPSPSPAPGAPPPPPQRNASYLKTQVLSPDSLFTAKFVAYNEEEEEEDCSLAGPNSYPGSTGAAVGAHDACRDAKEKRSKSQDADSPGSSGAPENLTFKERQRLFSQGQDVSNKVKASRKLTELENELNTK

Target: Afadin (human (endogenous in Caco-2)) (UniProt P55196)
Experiment: co-IP; endogenous Afadin immunoprecipitated from Caco-2 lysate (about 1 mg; 50 mM Tris-HCl pH 8, 150 mM NaCl, 1 mM EDTA, 1% Triton X-100) with anti-Afadin and protein G Sepharose overnight at 4 °C; ASPP2 detected by immunoblot

binding: binds
B1: ASPP2 (protein, UniProt Q13625 1-1128)
chain: MMPMFLTVYLSNNEQHFTEVPVTPETICRDVVDLCKEPGESDCHLAEVWCGSERPVADNERMFDVLQRFGSQRNEVRFFLRHERPPGRDIVSGPRSQDPSLKRNGVKVPGEYRRKENGVNSPRMDLTLAELQEMASRQQQQIEAQQQLLATKEQRLKFLKQQDQRQQQQVAEQEKLKRLKEIAENQEAKLKKVRALKGHVEQKRLSNGKLVEEIEQMNNLFQQKQRELVLAVSKVEELTRQLEMLKNGRIDSHHDNQSAVAELDRLYKELQLRNKLNQEQNAKLQQQRECLNKRNSEVAVMDKRVNELRDRLWKKKAALQQKENLPVSSDGNLPQQAASAPSRVAAVGPYIQSSTMPRMPSRPELLVKPALPDGSLVIQASEGPMKIQTLPNMRSGAASQTKGSKIHPVGPDWSPSNADLFPSQGSASVPQSTGNALDQVDDGEVPLREKEKKVRPFSMFDAVDQSNAPPSFGTLRKNQSSEDILRDAQVANKNVAKVPPPVPTKPKQINLPYFGQTNQPPSDIKPDGSSQQLSTVVPSMGTKPKPAGQQPRVLLSPSIPSVGQDQTLSPGSKQESPPAAAVRPFTPQPSKDTLLPPFRKPQTVAASSIYSMYTQQQAPGKNFQQAVQSALTKTHTRGPHFSSVYGKPVIAAAQNQQQHPENIYSNSQGKPGSPEPETEPVSSVQENHENERIPRPLSPTKLLPFLSNPYRNQSDADLEALRKKLSNAPRPLKKRSSITEPEGPNGPNIQKLLYQRTTIAAMETISVPSYPSKSASVTASSESPVEIQNPYLHVEPEKEVVSLVPESLSPEDVGNASTENSDMPAPSPGLDYEPEGVPDNSPNLQNNPEEPNPEAPHVLDVYLEEYPPYPPPPYPSGEPEGPGEDSVSMRPPEITGQVSLPPGKRTNLRKTGSERIAHGMRVKFNPLALLLDSSLEGEFDLVQRIIYEVDDPSLPNDEGITALHNAVCAGHTEIVKFLVQFGVNVNAADSDGWTPLHCAASCNNVQVCKFLVESGAAVFAMTYSDMQTAADKCEEMEEGYTQCSQFLYGVQEKMGIMNKGVIYALWDYEPQNDDELPMKEGDCMTIIHREDEDEIEWWWARLNDKEGYVPRNLLGLYPRIKPRQRSLA
